The text below walks through data of PMC7782792.

By UniProt entry, the sequences of proteins in these tests, tags left out. Where a name states a change or a piece, a line headed by the entry shows the natural chain unless it says otherwise. Residues count along the entry.
UniProt P10636: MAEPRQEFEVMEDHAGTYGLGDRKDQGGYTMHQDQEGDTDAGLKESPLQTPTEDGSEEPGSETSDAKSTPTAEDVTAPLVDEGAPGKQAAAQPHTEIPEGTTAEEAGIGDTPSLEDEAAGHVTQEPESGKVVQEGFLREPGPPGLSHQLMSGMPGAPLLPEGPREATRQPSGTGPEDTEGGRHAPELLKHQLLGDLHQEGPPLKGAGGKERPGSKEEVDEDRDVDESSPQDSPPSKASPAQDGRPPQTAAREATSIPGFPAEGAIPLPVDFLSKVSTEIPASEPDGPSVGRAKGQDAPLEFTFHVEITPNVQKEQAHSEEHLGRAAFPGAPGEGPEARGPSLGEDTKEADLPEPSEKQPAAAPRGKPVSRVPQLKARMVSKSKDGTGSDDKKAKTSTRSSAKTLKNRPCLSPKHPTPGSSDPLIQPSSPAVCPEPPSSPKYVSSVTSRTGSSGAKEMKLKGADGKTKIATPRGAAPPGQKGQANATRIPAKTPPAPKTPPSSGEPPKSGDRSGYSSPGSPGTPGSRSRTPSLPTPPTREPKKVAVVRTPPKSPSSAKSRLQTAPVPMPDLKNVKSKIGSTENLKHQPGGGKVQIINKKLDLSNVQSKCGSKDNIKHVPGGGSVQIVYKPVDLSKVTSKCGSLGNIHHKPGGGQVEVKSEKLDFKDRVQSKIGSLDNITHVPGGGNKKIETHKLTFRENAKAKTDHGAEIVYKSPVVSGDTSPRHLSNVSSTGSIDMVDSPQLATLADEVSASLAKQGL
UniProt P06756, residues 31-1048: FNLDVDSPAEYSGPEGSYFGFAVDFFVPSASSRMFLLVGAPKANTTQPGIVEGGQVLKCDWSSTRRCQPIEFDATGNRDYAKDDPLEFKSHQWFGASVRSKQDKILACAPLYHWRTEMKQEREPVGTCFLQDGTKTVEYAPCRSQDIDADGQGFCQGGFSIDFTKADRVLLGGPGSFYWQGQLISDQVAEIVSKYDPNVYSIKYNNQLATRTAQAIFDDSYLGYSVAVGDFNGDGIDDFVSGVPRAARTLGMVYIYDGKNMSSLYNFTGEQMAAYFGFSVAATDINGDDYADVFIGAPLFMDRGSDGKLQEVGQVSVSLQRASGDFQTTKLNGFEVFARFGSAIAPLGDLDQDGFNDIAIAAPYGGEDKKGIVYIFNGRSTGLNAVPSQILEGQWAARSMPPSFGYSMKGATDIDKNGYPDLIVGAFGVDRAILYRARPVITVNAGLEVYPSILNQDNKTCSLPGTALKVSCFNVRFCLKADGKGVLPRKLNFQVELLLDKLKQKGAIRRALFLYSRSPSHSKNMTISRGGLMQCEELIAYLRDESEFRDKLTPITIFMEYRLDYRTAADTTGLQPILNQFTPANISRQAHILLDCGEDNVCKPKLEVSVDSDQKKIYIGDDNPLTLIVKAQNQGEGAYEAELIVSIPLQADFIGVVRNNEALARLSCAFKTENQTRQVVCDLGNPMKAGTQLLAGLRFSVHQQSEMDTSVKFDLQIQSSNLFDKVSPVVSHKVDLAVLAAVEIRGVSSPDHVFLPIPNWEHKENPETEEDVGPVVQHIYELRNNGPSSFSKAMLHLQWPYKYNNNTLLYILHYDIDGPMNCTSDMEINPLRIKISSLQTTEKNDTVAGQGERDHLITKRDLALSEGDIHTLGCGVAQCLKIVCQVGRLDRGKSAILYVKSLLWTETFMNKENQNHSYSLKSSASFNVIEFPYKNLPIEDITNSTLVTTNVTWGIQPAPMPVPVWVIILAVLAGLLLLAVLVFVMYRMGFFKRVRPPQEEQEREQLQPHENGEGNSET
UniProt P05556: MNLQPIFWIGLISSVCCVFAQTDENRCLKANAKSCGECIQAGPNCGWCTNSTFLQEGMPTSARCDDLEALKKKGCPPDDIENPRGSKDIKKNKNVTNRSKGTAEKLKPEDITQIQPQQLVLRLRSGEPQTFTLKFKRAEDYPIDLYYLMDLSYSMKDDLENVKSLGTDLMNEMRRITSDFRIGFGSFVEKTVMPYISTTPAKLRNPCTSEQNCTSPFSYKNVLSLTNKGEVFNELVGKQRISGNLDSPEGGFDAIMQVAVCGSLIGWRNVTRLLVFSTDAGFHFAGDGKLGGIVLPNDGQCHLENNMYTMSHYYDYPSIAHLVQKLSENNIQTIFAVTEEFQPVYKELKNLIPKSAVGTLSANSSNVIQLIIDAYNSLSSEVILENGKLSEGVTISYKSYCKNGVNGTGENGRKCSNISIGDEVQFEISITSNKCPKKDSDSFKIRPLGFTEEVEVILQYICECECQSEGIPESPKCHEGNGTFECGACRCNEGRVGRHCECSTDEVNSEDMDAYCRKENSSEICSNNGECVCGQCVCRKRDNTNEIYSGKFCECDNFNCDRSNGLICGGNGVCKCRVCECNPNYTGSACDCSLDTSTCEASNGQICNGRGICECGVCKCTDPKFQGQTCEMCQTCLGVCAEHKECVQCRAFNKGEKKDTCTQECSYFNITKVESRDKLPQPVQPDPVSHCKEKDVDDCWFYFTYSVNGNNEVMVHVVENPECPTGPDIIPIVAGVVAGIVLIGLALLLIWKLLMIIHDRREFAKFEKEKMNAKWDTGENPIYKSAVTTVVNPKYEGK

No constants are given. Whether binding was seen depends on the method and setting. Binding seen in cells or lysates may run through a third protein. Here binding means that the protein was enriched with, or labelled near, the bait; the list need not be complete.

In the assay the target is Tau-APEX2 (APEX2 fused to the C-terminus of Tau) (human) (UniProt P10636). The assay is described as follows: proximity labelling; Tau-APEX2 incubated with HEK293T cells over-expressing Flag-tagged ITGαV or GFP-tagged ITGβ1; cell surface biotinylation, streptavidin pulldown, immunoblotting with tag antibodies; only the target purified. For orientation: In western blotting, separated proteins are transferred to a membrane and probed.

As to “Flag-tagged ITGαV (from UniProt P06756 31-1048) (receptor)”, the binding entry is “binds”.

Consider “GFP-tagged ITGβ1 (from UniProt P05556 21-798) (receptor)”, for which the binding result was “binds”.
